Results are given in words; binding and its absence hold for the method and conditions named. Some entries that bind do so weakly or less than the wild type.
Molecular target: T1, human GST-VEGF (human, UniProt P15692-9 27-147)
T1 construct: also called GST-VEGF humano; not shown: GST fusion partner
T1 sequence (looked up): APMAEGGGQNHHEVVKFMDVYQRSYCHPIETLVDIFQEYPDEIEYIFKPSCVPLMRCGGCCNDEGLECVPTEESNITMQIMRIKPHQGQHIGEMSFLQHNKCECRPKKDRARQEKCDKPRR
Experiment: competition ELISA on coated GST-VEGF with soluble scFv 2H1

B1: phage displayed scFv clone L3H6 (scFv, V domains shown)
VH: QVQLVQSGAEVKKPGESLKISCKGSGYSFTSYWIGWVRQMPGKGLEWMGIIYPGDSDTRYSPSFQGQVTISADKSISTAYLQWSSLKASDTAMYYCARQGTHNRKIWGQGTMVTVSS
VL: QAVVTQEPSLTVSPGGTVTLTCASSTGAVTSGNYPNWFQQRPGQPPRALIYSTSNKHSWTPARFSGSLLGGKAALTLSGAQPEDEAEYYCRLSYDLARPVFGGGTKLTVLG
Question: B1 was tested. Which binding did it give?
Answer: binds
